The source of these data is publication PMC6234864.

The target of assay [1] is Pas3-2×FLAG (Cryptococcus neoformans). Kind of assay: affinity purification with mass spectrometry; Co-IP/MS from protein extract of the Pas3-2×FLAG strain with FLAG trap (Sigma); strain with the 2×FLAG tag alone and untagged WT as negative controls.
Assay [2] addresses Pas3-mCherry (Cryptococcus neoformans). Kind of assay: affinity purification with mass spectrometry; Co-IP/MS from protein extract of the Pas3-mCherry strain with RFP trap (ChromoTek); WT XL280 without tag as negative control.

These are yes or no findings as the source states them, for the method shown. In cells and extracts the contact can be indirect. Here binding means that the protein was enriched with, or labelled near, the bait; the list need not be complete.

B1: Bre1 (protein, UniProt P0CQ62 1-820)
chain: MNADLKRVRENTLDDSPSPSAKRRLNSNASSPIQPSDDEGMAEWMKIVEVKRKEAIYRQMLEYRRISEHETKRANDLEAQRRVLEASFHAVELCWTQIVAAVRDLAGAENLQLKEEEVLEPLLDPSTPVPELEKALRSRLPTTRQLVTRFVDLVAHNATRPASEADLQARCLKLEAEASALRSNSKLLESEISALKGSRDEAQRDLQRIRKALDRERMEHGKAQEEWKEERTRGGQATPNLRANGSGHSTPNGKVEADKKFYSGAGPSMAGVLQDTSELEQLAASRLKQLEQLRFEQTQLQQEVDRLKILANHPSEAALRESPFFQVYLHQLSTSINRAESLQTRFTATESKLDQLRDSNGEFREAVLAEARGQTETLRAQMAKKDSDIARLRGQRDELNSEIMERRAKEVEKCKYTEQIENLANSRQERISFLTSEVRRLKGKLAAAHSSDGYLSFLKESGIDGDYVKDLEAKVVTSQDQINALTSQLERVSSDTAAAKSETEVRTELESAKRLLARYERILGPNPEAAEDVRYLSQQLEKKEKERASLEMKLEEAEAATNALYSEVEGLSKLWEALDQTVKSKVLELRDGEQKITRLATEKAKADNKYFAAMRAKEAVDMEAKAAQRSVEKQLRLLERAQEVETSLRSQITANEKGLTALKNNALDLQNQLATVVAEKTQLELRLQQSQNALVEAQQIMHQRVAEAIAEKEARAKLQDEADGQMKIIKKLKERQDAVAAASQTGMSDHEWAITQERDKLLKLLKCSCCEQNFKQQVIVKCMHTFCKQCLEQRIASRQRKCPACGLAFAKEDIQTLYWQ
As to B1, the binding result in assay [1] and in assay [2] was “binds” in each case.
